Laboratory results published in patent US10039733B2, “Compositions, method, and kits for treating pulmonary conditions” (NuSirt Sciences, Inc., priority 2013, dated 2018).
For at least one compound, name, drawing or mass did not settle the structure.

Test system: OVA-induced asthmatic mice
Assay: BALF cellularity by flow cytometry in OVA-induced asthma
Assay type: in vivo, Balb/c mice
Conditions: dexamethasone 10 mg/kg IP days 25 to 27, 12 g leucine diet
Method: The interactive effects of leucine and theophylline was evaluated in sixty young adult female Balb/c mice that were randomized to the following six groups (n=10/group):
Group 1 was an untreated control group that was administered a diet containing a baseline level of leucine at 12 g of leucine/day.
Group 2 was a positive control group that was administered dexamethasone via IP injection and a diet containing a baseline level of leucine at 12 g of leucine/day.
Group 3 was administered a diet containing a high level of leucine (diet containing leucine at 12 g/day for days 0-13 and 24 g/day beginning on day 14) and no theophylline or dexamethasone.
Group 4 was administered sub-therapeutic level of theophylline (1 mg/kg theophylline, 10% of therapeutic level) via IP injection and a high leucine diet (diet containing leucine at 12 g/day for days 0-13 and 24 g/day beginning on day 14).
Group 5 was administered sub-therapeutic level of theophylline (3 mg/kg of theophylline, 30% of therapeutic level) via IP injection and a high leucine diet (diet containing leucine at 12 g/day for days 0-13 and 24 g/day beginning on day 14).
Group 6 was administered a therapeutic level of theophylline group that was administered 10 mg/kg of theophylline (100% of therapeutic level) along with a diet containing a baseline of leucine at 12 g of leucine/day.
Study length was 28 days, and asthma was induced via ovalbumin (OVA) sensitization on days 0 and 14 via IP injection, followed by intranasal OVA challenge on days 14 and 25-27.
Animals were sacrificed on day 28, subjected to bronchial alveolar lavage and the lavage fluid (BALF, 2 mL) and lungs collected. Airway inflammation was evaluated by assessing cellularity of BALF via flow cytometer; parameters used for cellular differentiation were sized granularity, autofluorescence and the expression of the following markers: CD45, Gr-1, CD11b, CCR3, B220 and CD3.
Cell types were defined as follows: […]
Eosinophils: CD45^+; Non-autofluorescent; CCR3^+.
Neutrophils: CD45^+; Non-autofluorescent; Gr-1^+; CCR3^+.
T cells: CD45^+; Non-autofluorescent; Gr-1^−; CD3^+.
B cells: CD45^+; Non-autofluorescent; Gr-1^⋅; B220^+.
Macrophages: CD45^+, autofluorescent: CD11b^+.

C[C@@H]1C[C@H]2[C@@H]3CCC4=CC(=O)C=C[C@]4(C)[C@@]3(F)[C@@H](O)C[C@]2(C)[C@@]1(O)C(=O)CO [dexamethasone]
significantly reduced: B-cell number in BALF | BALF total cellularity | T-cell number in BALF | eosinophil number in BALF | neutrophil number in BALF
